Laboratory results published in patent publication US7384933B2, “Derivatives of 2-hydroxytetrahydrofuran and their use as medicaments” (priority 2003, dated 2008).
Where a name gives a salt, the structure may show the parent alone. Read-outs that look alike come from different tables or passages of the source. Some entries share one result that the patent states for a list of compounds.

Experiments:
[1] = target: T1, human calpain I (Homo sapiens, UniProt P07384); assay: Study of effects on human calpain I (Suc Leu Tyr-AMC fluorescence); assay type: biochemical; details: purified enzyme from human erythrocytes; Suc Leu Tyr-AMC substrate; one hour at 25° C.
T1 construct: purified enzyme from human erythrocytes; purchased Calbiochem 208713; host or cells: human erythrocytes (native tissue source)
T1 sequence (P07384 1-714): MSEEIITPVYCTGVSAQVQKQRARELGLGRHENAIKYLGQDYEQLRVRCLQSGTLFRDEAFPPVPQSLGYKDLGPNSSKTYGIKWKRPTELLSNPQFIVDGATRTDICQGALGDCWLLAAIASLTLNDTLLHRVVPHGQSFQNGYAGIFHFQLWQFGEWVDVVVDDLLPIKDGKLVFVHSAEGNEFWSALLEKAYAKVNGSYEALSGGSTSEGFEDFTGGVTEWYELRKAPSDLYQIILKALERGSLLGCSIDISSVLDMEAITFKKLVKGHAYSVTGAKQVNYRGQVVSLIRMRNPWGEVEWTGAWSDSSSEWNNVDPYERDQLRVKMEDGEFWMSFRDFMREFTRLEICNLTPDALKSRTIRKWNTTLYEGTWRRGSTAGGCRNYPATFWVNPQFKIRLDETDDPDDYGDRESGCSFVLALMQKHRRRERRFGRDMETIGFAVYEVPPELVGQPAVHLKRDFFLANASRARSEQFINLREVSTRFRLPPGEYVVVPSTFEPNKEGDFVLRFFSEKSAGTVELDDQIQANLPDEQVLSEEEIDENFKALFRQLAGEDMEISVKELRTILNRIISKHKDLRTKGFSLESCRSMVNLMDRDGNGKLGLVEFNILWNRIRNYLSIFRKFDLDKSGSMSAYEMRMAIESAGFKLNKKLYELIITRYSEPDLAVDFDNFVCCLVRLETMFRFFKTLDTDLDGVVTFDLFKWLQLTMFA
T1 sequence (P04632 1-268 partner): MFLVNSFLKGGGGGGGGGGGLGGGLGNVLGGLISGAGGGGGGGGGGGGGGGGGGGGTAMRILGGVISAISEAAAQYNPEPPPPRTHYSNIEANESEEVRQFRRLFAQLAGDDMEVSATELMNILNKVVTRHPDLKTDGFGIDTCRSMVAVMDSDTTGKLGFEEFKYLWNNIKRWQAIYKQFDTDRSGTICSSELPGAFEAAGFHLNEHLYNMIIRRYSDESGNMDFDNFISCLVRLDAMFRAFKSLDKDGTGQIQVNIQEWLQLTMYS

[2] = test system: calpain activity in rat (C6) glial cells; assay: In situ effects on calpain activity in rat (C6) glial cells (maitotoxin, Suc-Leu-Tyr-AMC); assay type: cell-based; details: maitotoxin 1 nM, Suc-Leu-Tyr-AMC 100 μM
[3] = test system: lipid peroxidation of rat cerebral cortex; assay: Effects on lipid peroxidation of rat cerebral cortex (MDA concentration); assay type: biochemical; details: rat cerebral cortex homogenate; FeCl2/EDTA/ascorbic acid; MDA quantified

Row | SMILES | IC50 [1] | IC50 [2] | IC50 [3] | IC50 ([2]; read-out: IC50)
1 | CC(=O)OC1OCC[C@@H]1NC(=O)[C@H](CC(C)C)NC(=O)[C@H](CC(C)C)NC(=O)c1ccc2c(c1)Nc1ccccc1S2 (stereo partly drawn) [Example 11, N-(10H-phenothiazin-2-ylcarbonyl)leucyl-N^1-[(3S)-2-(acetyloxy)-tetrahydrofuran-3-yl]-L-leucinamide] | ≤ 5 µM | ≤ 10 µM | ≤ 5 µM | –
2 | CC(C)C[C@H](NC(=O)CN(C)C(=O)COc1ccc2c(c1)Nc1ccccc1S2)C(=O)N[C@H]1CCOC1O (stereo partly drawn) [Example 45, N-methyl-N-[(10H-phenothiazin-2-yloxy)acetyl]glycyl-N^1-[(3S)-2-hydroxytetrahydrofuran-3-yl]-L-leucinamide] | ≤ 5 µM | – | ≤ 5 µM | –
3 | O=C(COc1ccc2c(c1)Nc1ccccc1S2)NCC(=O)N[C@@H](CC1CCCCC1)C(=O)N[C@H]1CCOC1O (stereo partly drawn) [Example 56, N-[(10H-phenothiazin-2-yloxy)acetyl]glycyl-3-cyclohexyl-N^1-[(3S)-2-hydroxytetrahydrofuran-3-yl]-L-alaninamide] | ≤ 5 µM | – | ≤ 5 µM | –
4 | CC(C)C[C@H](NC(=O)CNC(=O)c1ccc2c(c1)Nc1ccccc1S2)C(=O)N[C@H]1CCOC1O (stereo partly drawn) [Example 7, N-(10H-phenothiazin-2-ylcarbonyl)glycyl-N^1-[(3S)-2-hydroxytetrahydrofuran-3-yl]-L-leucinamide] | ≤ 5 µM | – | ≤ 5 µM | –
5 | CCC[C@H](NC(=O)COc1ccc2c(c1)Nc1ccccc1S2)C(=O)N[C@@H](CC(C)C)C(=O)N[C@H]1CCOC1O (stereo partly drawn) [Example 49, N-[(10H-phenothiazin-2-yloxy)acetyl]-L-norvalyl-N^1-[(3S)-2-hydroxytetrahydrofuran-3-yl]-L-leucinamide] | ≤ 5 µM | – | – | ≤ 10 µM
6 | CC(C)C[C@H](NC(=O)[C@H](C)NC(=O)COc1ccc2c(c1)Nc1ccccc1S2)C(=O)N[C@H]1CCOC1O (stereo partly drawn) [Example 42, N-[(10H-phenothiazin-2-yloxy)acetyl]-L-alanyl-N^1-[(3S)-2-hydroxytetrahydrofuran-3-yl]-L-leucinamide] | ≤ 5 µM | – | ≤ 5 µM | –
7 | C[C@H](NC(=O)Cc1ccc2c(c1)Nc1ccccc1S2)C(=O)N[C@@H](CC1CCCCC1)C(=O)N[C@H]1CCOC1O (stereo partly drawn) [Example 18, N-(10H-phenothiazin-2-ylacetyl)-L-alanyl-3-cyclohexyl-N^1-[(3S)-2-hydroxytetrahydrofuran-3-yl]-L-alaninamide] | ≤ 5 µM | – | – | –
8 | CC(C)C[C@H](NC(=O)CCNC(=O)COc1ccc2c(c1)Nc1ccccc1S2)C(=O)N[C@H]1CCOC1O (stereo partly drawn) [Example 44, N-[(10H-phenothiazin-2-yloxy)acetyl]-β-alanyl-N^1-[(3S)-2-hydroxytetrahydrofuran-3-yl]-L-leucinamide] | ≤ 5 µM | – | ≤ 5 µM | –
9 | CC(C)C[C@H](NC(=O)C(C)(C)NC(=O)COc1ccc2c(c1)Nc1ccccc1S2)C(=O)N[C@H]1CCOC1O (stereo partly drawn) [Example 64, 2-methyl-N-[(10H-phenothiazin-2-yloxy)acetyl]alanyl-N^1-[(3S)-2-hydroxytetrahydrofuran-3-yl]-L-leucinamide] | ≤ 5 µM | – | – | –
10 | CC(C)C[C@H](NC(=O)c1ccc2c(c1)Nc1ccccc1S2)C(=O)N[C@@H](CC(C)C)C(=O)N[C@@H](CC(C)C)C(=O)N[C@H]1CCOC1O (stereo partly drawn) [Example 2, N-(10H-phenothiazin-2-ylcarbonyl)-L-leucyl-L-leucyl-N^1-[(3S)-2-hydroxytetrahydrofuran-3-yl]-L-leucinamide] | ≤ 5 µM | – | ≤ 5 µM | –
11 | CC(C)C[C@H](NC(=O)c1ccc2c(c1)Nc1ccccc1CC2)C(=O)N[C@@H](CC(C)C)C(=O)N[C@H]1CCOC1O (stereo partly drawn) [Example 62, N-(10,11-dihydro-5H-dibenzo[b,f]azepin-3-ylcarbonyl)-L-leucyl-N^1-[(3S)-2-hydroxytetrahydrofuran-3-yl]-L-leucinamide] | ≤ 5 µM | – | ≤ 5 µM | –
12 | CC(C)C[C@H](NC(=O)[C@H](CO)NC(=O)COc1ccc2c(c1)Nc1ccccc1S2)C(=O)N[C@H]1CCOC1O (stereo partly drawn) [Example 50, N-[(10H-phenothiazin-2-yloxy)acetyl]-L-seryl-N^1-[(3S)-2-hydroxytetrahydrofuran-3-yl]-L-leucinamide] | ≤ 5 µM | – | – | ≤ 10 µM
13 | C=CC(NC(=O)COc1ccc2c(c1)Nc1ccccc1S2)C(=O)NC(CC(C)C)C(=O)NC1CCOC1O [Example 53, N^1-[(3S)-2-hydroxytetrahydrofuran-3-yl]-N^2-((2S)-2-{[(10H-phenothiazin-2-yloxy)-acetyl]amino}goal-3-enoyl)-L-leucinamide] | ≤ 5 µM | – | – | ≤ 10 µM
14 | CC(C)C[C@H](NC(=O)[C@H](COC(C)(C)C)NC(=O)Cc1ccc2c(c1)Nc1ccccc1S2)C(=O)N[C@H]1CCOC1O (stereo partly drawn) [Example 17, O-(tert-butyl)-N-(10H-phenothiazin-2-ylacetyl)-L-seryl-N^1-[(3S)-2-hydroxytetrahydrofuran-3-yl]-L-leucinamide] | ≤ 5 µM | – | ≤ 5 µM | –
15 | CC(C)C[C@H](NC(=O)[C@@H]1CCCN1C(=O)c1ccc2c(c1)Nc1ccccc1S2)C(=O)N[C@H]1CCOC1O (stereo partly drawn) [Example 10, 1-(10H-phenothiazin-2-ylcarbonyl)-L-prolyl-N^1-[(3S)-2-hydroxytetrahydrofuran-3-yl]-L-leucinamide] | ≤ 5 µM | – | – | –
16 | CC(C)C[C@H](NC(=O)CNC(=O)COc1ccc2c(c1)Nc1ccccc1S2)C(=O)N[C@H]1CCOC1O (stereo partly drawn) [Example 41, N-[(10H-phenothiazin-2-yloxy)acetyl]-glycyl-N^1-[(3S)-2-hydroxytetrahydrofuran-3-yl]-L-leucinamide] | ≤ 5 µM | – | ≤ 5 µM | –
17 | CC(C)C[C@H](NC(=O)[C@@H](NC(=O)COc1ccc2c(c1)Nc1ccccc1S2)C(C)(C)C)C(=O)N[C@H]1CCOC1O (stereo partly drawn) [Example 47, 3-methyl-N-[(10H-phenothiazin-2-yloxy)acetyl]-L-valyl-N^1-[(3S)-2-hydroxytetrahydrofuran-3-yl]-L-leucinamide] | ≤ 5 µM | – | – | ≤ 10 µM
18 | CC(C)C[C@H](NC(=O)[C@@H](NC(=O)COc1ccc2c(c1)Nc1ccccc1S2)c1ccccc1)C(=O)N[C@H]1CCOC1O (stereo partly drawn) [Example 52, N^1-[(3S)-2-hydroxytetrahydrofuran-3-yl]-N^2-((2S)-2-{[(10H-phenothiazin-2-yloxy)acetyl]amino}-2-phenylethanoyl)-L-leucinamide] | ≤ 5 µM | – | – | ≤ 10 µM
19 | CC(C)C[C@H](NC(=O)[C@H](NC(=O)COc1ccc2c(c1)Nc1ccccc1S2)C(C)C)C(=O)N[C@H]1CCOC1O (stereo partly drawn) [Example 46, N-[(10H-phenothiazin-2-yloxy)acetyl]-D-valyl-N^1-[(3S)-2-hydroxytetrahydrofuran-3-yl]-L-leucinamide] | ≤ 5 µM | – | – | –
20 | CC(C)C[C@H](NC(=O)CNC(=O)C(C)(C)Oc1ccc2c(c1)Nc1ccccc1S2)C(=O)N[C@H]1CCOC1O (stereo partly drawn) [Example 60, N-[2-methyl-2-(10H-phenothiazin-2-yloxy)propanoyl]glycyl-N^1-[(3S)-2-hydroxytetrahydrofuran-3-yl]-L-leucinamide] | ≤ 5 µM | – | ≤ 5 µM | –
21 | CC(C)[C@H](NC(=O)CNC(=O)COc1ccc2c(c1)Nc1ccccc1S2)C(=O)N[C@H]1CCOC1O (stereo partly drawn) [Example 55, N-[(10H-phenothiazin-2-yloxy)acetyl]glycyl-N^1-[(3S)-2-hydroxytetrahydrofuran-3-yl]-L-valinamide] | ≤ 5 µM | – | – | –
22 | CC(C)C[C@H](NC(=O)[C@@H](NC(=O)COc1ccc2c(c1)Nc1ccccc1S2)[C@@H](C)O)C(=O)N[C@H]1CCOC1O (stereo partly drawn) [Example 51, N-[(10H-phenothiazin-2-yloxy)acetyl]-L-threonyl-N^1-[(3S)-2-hydroxytetrahydrofuran-3-yl]-L-leucinamide] | ≤ 5 µM | – | – | ≤ 10 µM
23 | CC[C@H](NC(=O)COc1ccc2c(c1)Nc1ccccc1S2)C(=O)N(C(=O)[C@@H](N)CC(C)C)[C@H]1CCOC1O (stereo partly drawn) [Example 48, N^1-[(3S)-2-hydroxytetrahydrofuran-3-yl]-N^1-((2S)-2-{[(10H-phenothiazin-2-yloxy)acetyl]amino}butanoyl)-L-leucinamide] | ≤ 5 µM | – | – | ≤ 10 µM
24 | CC(C)C[C@H](NC(=O)[C@H](CCCCN)NC(=O)c1ccc2c(c1)Nc1ccccc1S2)C(=O)N[C@H]1CCOC1O (stereo partly drawn) [Example 12, N^2-(10H-phenothiazin-2-ylcarbonyl)lysyl-N^1-[(3S)-2-hydroxytetrahydrofuran-3-yl]-L-leucinamide trifluoroacetate] | ≤ 5 µM | – | ≤ 5 µM | –
